Assay results as given in patent publication US11873291B2, “Quinoline cGAS antagonist compounds” (ImmuneSensor Therapeutics, Inc., priority 2020, dated 2024).
pIC50: −log10 of the molar value. Like-named read-outs stand apart in the source and are kept apart here. Structures were worked out from names or drawings and are uncertain.

Amino acid sequences for entries named in this document (tags omitted). Residues count along the entry.
UniProt Q8N884, 147-522 limits assumed: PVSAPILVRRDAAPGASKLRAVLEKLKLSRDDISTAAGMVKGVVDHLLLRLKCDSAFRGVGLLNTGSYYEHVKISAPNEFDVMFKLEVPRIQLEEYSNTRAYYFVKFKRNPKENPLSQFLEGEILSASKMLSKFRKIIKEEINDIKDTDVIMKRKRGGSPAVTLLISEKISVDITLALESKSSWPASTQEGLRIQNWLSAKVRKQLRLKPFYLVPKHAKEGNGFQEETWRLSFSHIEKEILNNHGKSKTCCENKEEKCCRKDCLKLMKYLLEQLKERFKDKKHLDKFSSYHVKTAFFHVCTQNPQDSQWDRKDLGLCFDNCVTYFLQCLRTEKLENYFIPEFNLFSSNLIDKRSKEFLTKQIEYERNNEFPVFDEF

Legend:
[1] = target: recombinant human cGAS (aa147-522) (Homo sapiens, UniProt Q8N884); test: In vitro inhibition assay of cGAS activity (ATP consumption, KinaseGlo Max); type: biochemical
Description: Expression and Purification of Recombinant cGAS Protein: cDNA encoding full-length or amino acids […] of human cGAS was inserted into a modified pET28a vector containing an in-frame His6-SUMO tag. The E. coli strain BL21/pLys harboring the plasmid was induced with 0.5 mM IPTG at 18° C. overnight. His6-SUMO tag was removed by a SUMO protease digestion following purification of the His6-SUMO-cGAS as described previously (Sun et al, 2013, Science 339, 786).
In vitro inhibition assay of cGAS activity: A 60 μL mixture containing 20 mM Tris-Cl, pH 7.5, 5 mM MgCl2, 0.2 mg/mL BSA, 0.01 mg/mL Herring testis DNA, 6.6 μM ATP, 0.1 mM GTP, 1.5 μg/mL of recombinant human cGAS (aa147-522) and serial dilutions of a test compound in DMSO was added to a 96-well plate and incubated at 37° C. for 20 minutes. At the end of reaction, 40 μL of KinaseGlo Max (Promega) was added and chemiluminescence was measured with a luminometer. Inhibitory effect of a compound is evaluated by plotting percentage of ATP consumption against logarithm of compound concentrations. IC50 value was calculated using GraphPad Prism 8 (GraphPad Software, Inc.).
The letter codes for cGAS IC50 include: A (<2 μM); B (2-30 μM); C (>30 μM).

[2] = test system: cGAS activity in Reporter THP1 cell line; test: Cellular assay to measure cGAS activity: ISRE-Gaussia luciferase reporter THP1 cells transfected with ISD
Description: Cellular assay to measure cGAS activity: Reporter THP1 cell line harboring a gene encoding Gaussia Luciferase under the control of 5 tandem repeats of interferon-stimulated response elements (ISRE) fused to an ISG54 minimal promoter was used to test inhibition of cGAS activity by synthetic compounds in human cells. These cells were plated on 96-well plates at 0.3×10^6/well and incubated with serial dilutions of compounds or DMSO for 5 min, followed by transfection of 2 μg/mL of ISD (Interferon Stimulatory DNA, a 45 bp DNA oligo) or mock transfected using lipofectamine 2000 (Life Technology) method, according to manufacturer's instructions. 16 hours later, 15 μL of the media from each well was transferred to a new plate, 50 μL of solution containing 50 mM Hepes-NaOH, pH 6.5, 50 mM NaCl, 10 mM EDTA, 1 μM of coelenterazine was added to each well and luminescence was measured immediately. Fold increase in luminescence compared to mock transfection was plotted against concentrations of each compound, and IC50 is calculated using Graphpad. To evaluate the specificity of a compound, the same procedure was performed except that cells were transfected with 2 μg/mL poly(I:C) or infected with Sendai Virus (SeV) at 50 Unit/mL, which are known to activate the RIG-I-MAVS pathway. […]

[3] = read-out: cGAS Inhibition Results IC50, Table 3
[4] = read-out: cGAS Inhibition Results IC50, Table 2

Row | pIC50 [1, 3] | pIC50 [1, 4] | pIC50 ([2]; read-out: Cellular Assay Results IC50, Table 4, Gaussia luciferase) | pIC50 ([2]; read-out: Cellular Assay Results IC50, untitled table after Table 4 (continuation)) | SMILES
1 | > 5.70 | – | – | – | O=C(O)CO[C@H]1C[C@@H](C(=O)O)N(c2cc(-n3ccnc3)c3ccc(Cl)c(Cl)c3n2)C1
2 | – | < 4.52 | – | – | O=C(O)CNc1cc(Cl)nc2c(Cl)cc(Cl)cc12
3 | 4.52 to 5.70 | – | 5.00 to 5.70 | – | COC(=O)[C@@H]1[C@H]2C[C@H]2CN1c1cc(-n2ccnc2)c2ccc(Cl)c(Cl)c2n1
4 | – | 4.52 to 5.70 | – | – | NC(=O)CNc1cc(-n2ccnc2)c2ccc(Cl)c(Cl)c2n1
5 | > 5.70 | – | – | > 5.70 | O=C(O)CCOC[C@@H]1C[C@@H]2C[C@@H]2N1c1cc(-n2ccnc2)c2ccc(Cl)c(Cl)c2n1 [I-707]
